For 38 compounds, cell number change and AC50 results are on record in PubChem BioAssay AID2685 (National Center for Advancing Translational Sciences (NCATS), 2010).

By AC50 is commonly meant the midpoint of the concentration-response curve, whichever way the signal moves. Read a low AC50 as activity at low concentration.

The assay in a line: qHTS Assay for Lipid Storage Modulators in Drosophila S3 Cells.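 As to cell number change: cells counted by Cell Tracker Red CMTPX staining in the red channel.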 The conditions noted are these: BODIPY lipid droplet fluorescence, 18-24 h; for cell number change: measured here: cell count max response, cells fed with added oleic acid. The gist of the method:
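Drosophila S3 cells got compounds at several concentrations plus oleic acid (400 uM solution). Laser-scanning cytometry with 488 nm excitation read lipid droplets at 500-530 nm and cells at 575-640 nm. Percent activity was relative to 20 uM Triacsin C.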
(qHTS replaces the single test concentration by a dilution series.)

The mark [1] stands for this setting: measured here: cell number channel AC50, cells fed with added oleic acid.
[2] abbreviates: measured here: lipid fluorescence (Fed channel) AC50, cells fed with added oleic acid.

Some of the results follow. These are further read-outs of the screen, such as a control signal, another cell line or another target. No call is given for them. Most of these compounds were active or inconclusive in the main read-out, so they are no random draw. The note in brackets gives the kind of curve behind each potency; many fits are weak.

For `CCOc1ccc(N2CCn3c2nc2c3c(=O)n(CCc3ccccc3)c(=O)n2C)cc1`, the cell number change worked out at 36.5%. For the same compound, the AC50 under setting [1] is 1.16 µM [rising, full curve, poor fit]. Further, under setting [2], the AC50 was 1.3 µM [rising, full curve].

With `O=C(CN1CCN(c2ccccc2O)CC1)Nc1ccc(S(=O)(=O)N2CCCCCC2)cc1`, the AC50 under setting [1] is 6.51 µM [rising, single point].

In the case of `O=C(COc1ccc2c(c1)OCO2)NC12CC3CC(CC(C3)C1)C2`, under setting [1], the half-maximal activity concentration (AC50) is 6.51 µM [falling, partial curve, poor fit].

Turning to `CC(=O)OC1C(OC(C)=O)N(C(C)=O)C(=O)N1C(C)=O` (stereo not drawn), the cell number change is -10.9%. Further, under setting [2], the AC50 is 1.84 µM [falling, full curve].

In the case of `C/C(=N\Nc1nccnc1Cl)c1ccc(Cl)c(Cl)c1`, the cell number change amounted to 6.93%. The AC50 under setting [2] is 0.58 µM [rising, single point].

With `Cn1nc(C(C)(C)C)c([N+](=O)[O-])c1C(=O)Nc1ccccc1`, the cell number change came out at 2%. For the same compound, the AC50 under setting [2] is 29.1 µM [rising, single point].

Regarding `CC1CCc2c(sc3ncnc(NCCCOC(C)C)c23)C1` (stereo not drawn), the cell number change worked out at 15.5%. The AC50 under setting [2] is 1.84 µM [rising, partial curve].

As to `COc1ccc2[nH]c3c(C)c4ccncc4c(C)c3c2c1`, the cell number change is -44.4%. Also, the AC50 under setting [1] was 14.6 µM [falling, single point]. For the same compound, under setting [2], the AC50 is 14.6 µM [falling, partial curve].

With `OCCN1CCN(CCOc2cccc(Cl)c2)CC1`, the cell number change was determined as 8.05%.

As to `COc1ccc2[nH]c(C(=O)Nc3ccc(F)cc3Br)cc2c1`, the cell number change was 1.65%. Also, the AC50 under setting [2] was 0.164 µM [falling, full curve, poor fit].

Consider `N#C/C(=C\c1ccc(-c2ccc(Br)cc2)o1)C(=O)NCCc1c[nH]c2ccccc12`, for which the cell number change is -43.5%. Also, under setting [1], the AC50 was 6.51 µM [rising, partial curve, poor fit]. Under setting [2], the AC50 is 6.51 µM [rising, partial curve, poor fit].

Consider `O=[N+]([O-])c1cccnc1N1CCC(c2cc(-c3ccc(Cl)cc3)n[nH]2)CC1`, for which the concentration at half-maximal activity (AC50) is, setting by setting: under setting [1], 1.3 µM [rising, partial curve]; under setting [2], 0.651 µM [rising, full curve].

Turning to `Cn1c(=O)c2c(nc(NCCNC(=O)c3ccco3)n2Cc2ccc(Cl)cc2Cl)n(C)c1=O`, the cell number change worked out at 13.4%. For the same compound, the AC50 under setting [2] was 0.291 µM [rising, partial curve, poor fit].

With `CCOc1ccc(Cn2c(SCCCCC#N)nc3c2c(=O)n(C)c(=O)n3C)cc1OCC`, the cell number change is -4.77%.

On to `CC(C)(C)NC(=O)CN(C(=O)CS(=O)CC(=O)Nc1ccc(F)cc1)c1ccccc1F` (stereo not drawn), for which the cell number change was -20.1%.

As for `Cc1nc2sc(C(=O)OC(C)C)c(N)c2c(C)c1C`, the cell number change came out at 41.2%. Further, the AC50 under setting [2] was 6.51 µM [falling, single point].

For `COc1cc(C(=O)NCc2ccc3[nH]c(C)cc3c2)cc(OC)c1OC`, the cell number change came to 50.2%. Further, the concentration at half-maximal activity (AC50) under setting [1] was 1.3 µM [rising, full curve].

As for `CCCCN(CC(O)COc1cccc(C)c1)CC(O)COc1cccc(C)c1` (stereo not drawn), the cell number change came to 32.9%. The AC50 under setting [1] was 0.411 µM [rising, partial curve, poor fit]. In addition, under setting [2], the AC50 was 6.31 µM [falling, single point].

With `O=C1COc2ccc(C(=O)NCc3ccco3)cc2N1`, under setting [1], the AC50 is 0.82 µM [rising, full curve, poor fit].

Take `CCOC(=O)N1CCN(C(=O)CNC(=O)c2nn(-c3ccc(OC)c(OC)c3)c(=O)c3ccccc23)CC1`: the cell number change came to 7.69%.

On to `COc1ccc(C(NC(=O)c2cc(OC)ccc2OC)c2ccccc2)cc1` (stereo not drawn), for which the cell number change was -7.56%. Besides, the AC50 under setting [2] is 3.26 µM [rising, single point].

Take `CC(C)c1nnc(NC(=O)CCS(=O)(=O)Cc2ccccc2)s1`: the cell number change was found to be 15.8%. Also, the AC50 under setting [2] was 29.1 µM [rising, single point].

Turning to `CSCCC(NC(=O)CCNC(=O)c1ccccc1Cl)c1nc2ccccc2[nH]1` (stereo not drawn), the cell number change is 22.9%.

With `CC(C)CN1CCN=C1Nc1ccccc1`, the cell number change turned out to be 3.89%.

As for `CC(=O)c1sc(NC(=O)c2oc3ccc(F)cc3c2C)nc1C`, the cell number change stood at 28.7%. The AC50 under setting [2] was 16.4 µM [rising, single point].

As to `CCOC(=O)c1ccc(N2C(=O)C3CC=CCC3C2=O)cc1` (stereo not drawn), the cell number change came out at 43.5%. Moreover, under setting [1], the AC50 was 29.1 µM [rising, single point].

Regarding `CCOC(=O)c1cc(CO)cc(C(=O)OCC)c1`, the cell number change stood at 2.57%. Also, the AC50 under setting [2] is 25.9 µM [rising, partial curve].

On to `CC1(C)O[C@@H]1COc1c2ccoc2cc2oc(=O)ccc12`, for which the cell number change amounted to 4.57%. The AC50 under setting [2] was 0.517 µM [rising, full curve].

With `Cc1ccc(NCC(=O)Nc2cccc(S(=O)(=O)N(C)C)c2)cc1S(=O)(=O)N1CCCCCC1`, the cell number change was 50%. Moreover, the AC50 under setting [1] was 10.3 µM [rising, single point].

As to `Cc1c(NC(=O)C(C)OC(=O)C23CC4CC(CC(Br)(C4)C2)C3)c(=O)n(-c2ccccc2)n1C` (stereo not drawn), the cell number change was -129%. Also, the concentration at half-maximal activity (AC50) under setting [1] was 14.6 µM [falling, partial curve, poor fit]. For the same compound, the AC50 under setting [2] is 18.4 µM [falling, partial curve].

On to `Cc1nc2ccccn2c1C(=O)N/N=C/c1ccc([N+](=O)[O-])o1`, for which the cell number change was -2.04%. Further, the AC50 under setting [1] was 1.3 µM [falling, partial curve]. Further, under setting [2], the AC50 is 0.58 µM [falling, full curve].

As for `Cc1[nH]c2ccccc2c1C(=O)C(=O)NC1CC1`, the cell number change was 29.2%. Moreover, under setting [2], the concentration at half-maximal activity (AC50) is 0.651 µM [falling, partial curve, poor fit].

On to `O=C(NCc1ccco1)c1cnc2n(c1=O)CCS2`, for which the cell number change was determined as 6.66%. The half-maximal activity concentration (AC50) under setting [2] is 0.13 µM [falling, single point].

For `CN(CC(=O)Nc1cccc(F)c1)C(=O)CN1C(=O)C2CC=CCC2C1=O` (stereo not drawn), the cell number change is -33.2%. Also, under setting [1], the AC50 was 4.11 µM [falling, full curve, poor fit]. Further, the AC50 under setting [2] was 4.11 µM [falling, full curve, poor fit].

Take `Cc1cccc(NC(=S)N2CCCCCC2)c1C`: the cell number change is -6.07%. The AC50 under setting [2] is 0.58 µM [rising, single point].

In the case of `Cc1cc(C(=O)Nc2ccc(Br)cc2)cs1`, the cell number change came out at 3.78%. Further, the AC50 under setting [2] is 0.58 µM [falling, single point].

In the case of `Cc1ccccc1NC(=O)CSc1nnc(C2CC2)n1CC1CCCO1` (stereo not drawn), the half-maximal activity concentration (AC50) was 5.17 µM [rising, partial curve, poor fit] under setting [1] and 6.51 µM [rising, single point] under setting [2].

With `Cc1ccc(C(OCC(O)CNC(C)c2ccccc2)c2ccccc2)cc1` (stereo not drawn), the cell number change was -46.5%.
